Reference: article PMC8148049 (Chemical Science, 2019)
Strings that start with PEPTIDE1 are HELM notation: dots part the residues, brackets hold end groups and non-standard residues.

Legend:
[1] = general procedure: peptide synthesis; 2-chlorotrityl polystyrene resin (0.65 mmol/g); DIC and Oxyma; settings: whole synthesis, scale 56.6 μmol
[2] = general procedure: peptide synthesis; 2-chlorotrityl chloride polystyrene resin (Merck Novabiochem); DIC and Oxyma; settings: HPLC-MS

Row | Substance | isolated mass [1] [mg] | final LC-MS purity ([2]; whole synthesis) [%] | final LC-MS purity ([2]; late stage modification step) [%]
1 | PEPTIDE1{A.Y.Q.[dK].F.L.W.[Nle].E.A}$PEPTIDE1,PEPTIDE1,1:R1-10:R2$$$V2.0 | 14.1 | 98 | 
2 | PEPTIDE1{A.Y.Q.[dK].F.L.[Trp(redBODIPY)].[Nle].E.A}$PEPTIDE1,PEPTIDE1,1:R1-10:R2$$$V2.0 |  |  | 99
